Measured values published in paper doi:10.1101/2022.10.05.511050 (bioRxiv, 2022).

By UniProt entry, the sequences of proteins in these tests, tags left out.
UniProt Q8R4B8: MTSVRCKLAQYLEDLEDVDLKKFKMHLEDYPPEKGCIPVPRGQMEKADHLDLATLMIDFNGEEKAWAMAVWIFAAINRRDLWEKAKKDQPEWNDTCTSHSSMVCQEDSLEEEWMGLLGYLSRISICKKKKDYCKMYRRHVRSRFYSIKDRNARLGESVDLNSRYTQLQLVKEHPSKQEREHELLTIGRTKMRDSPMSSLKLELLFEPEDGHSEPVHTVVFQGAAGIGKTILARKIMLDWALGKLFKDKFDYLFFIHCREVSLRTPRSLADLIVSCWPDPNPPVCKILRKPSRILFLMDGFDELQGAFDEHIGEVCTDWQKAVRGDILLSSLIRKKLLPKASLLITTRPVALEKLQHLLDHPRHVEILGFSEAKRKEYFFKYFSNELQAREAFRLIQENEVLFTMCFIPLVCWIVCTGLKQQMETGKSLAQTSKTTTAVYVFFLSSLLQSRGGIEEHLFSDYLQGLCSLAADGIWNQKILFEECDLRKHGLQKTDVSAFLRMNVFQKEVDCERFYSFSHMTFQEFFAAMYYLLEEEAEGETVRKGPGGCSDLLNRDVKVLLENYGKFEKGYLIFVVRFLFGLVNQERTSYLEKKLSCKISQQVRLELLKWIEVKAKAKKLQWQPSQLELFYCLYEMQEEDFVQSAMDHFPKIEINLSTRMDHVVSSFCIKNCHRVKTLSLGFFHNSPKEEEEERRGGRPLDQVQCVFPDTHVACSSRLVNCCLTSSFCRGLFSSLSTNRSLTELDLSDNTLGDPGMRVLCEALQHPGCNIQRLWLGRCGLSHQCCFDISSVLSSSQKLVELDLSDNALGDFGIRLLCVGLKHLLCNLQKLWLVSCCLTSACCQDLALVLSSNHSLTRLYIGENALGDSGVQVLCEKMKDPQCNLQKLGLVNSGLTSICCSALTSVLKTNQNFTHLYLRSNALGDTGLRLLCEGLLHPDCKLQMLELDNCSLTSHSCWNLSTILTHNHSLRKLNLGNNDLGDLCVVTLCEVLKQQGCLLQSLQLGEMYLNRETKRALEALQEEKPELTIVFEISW
UniProt Q80X73: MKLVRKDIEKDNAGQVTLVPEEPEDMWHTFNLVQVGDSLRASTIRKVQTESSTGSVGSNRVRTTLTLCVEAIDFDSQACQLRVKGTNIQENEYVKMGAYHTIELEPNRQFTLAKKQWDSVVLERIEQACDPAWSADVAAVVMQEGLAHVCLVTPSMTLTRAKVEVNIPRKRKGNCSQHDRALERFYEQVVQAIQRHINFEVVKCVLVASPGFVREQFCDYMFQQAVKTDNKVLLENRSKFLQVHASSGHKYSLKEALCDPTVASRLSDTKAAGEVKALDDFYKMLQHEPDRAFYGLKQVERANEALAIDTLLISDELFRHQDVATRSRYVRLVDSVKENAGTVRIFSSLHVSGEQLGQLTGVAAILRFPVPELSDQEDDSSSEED

Target: Flag-NLRP3 (reconstituted in J774 cells) (UniProt Q8R4B8)
Assay: affinity purification with mass spectrometry

## endogenous PELO (protein pelota homolog) (from UniProt Q80X73 1-385)
  binding: binds

No constants are given. Whether binding was seen depends on the method and setting. Binding seen in cells or lysates may run through a third protein. Here binding means that the protein was enriched with, or labelled near, the bait; the list need not be complete.
